“And” between values parts separate entries of the source, which are not always exact repeats. Identical values can stand only once. The source gives many values for each of these; only a part stands here.
Test system: U2OS cells
Experiment: Cell growth assay (IncuCyte confluence over 72 h)
Assay type: cell-based
Design: key: % of well area covered by cells (confluence)
Conditions: listed as 8F20
Outline: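 U2OS cells were grown in DMEM with 10% FBS for 24 h before treatment. Confluence was then tracked by IncuCyte phase imaging over 72 h and expressed as % of well area covered by cells. Each point is the average of three wells.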

Cc1ccc(C(=O)N(CCCN)[C@@H](c2nc3cc(Cl)ccc3c(=O)n2Cc2ccccc2)C(C)C)cc1 [compound 3, (R)-N-(3-aminopropyl)-N-(1-(3-benzyl-7-chloro-4-oxo-3,4-dihydroquinazolin-2-yl)−2-methylpropyl)−4-methylbenzamide]
U2OS cell growth (1 uM, time 52 h): 47.0716 and 49.5984 and 42.8553 | U2OS cell growth (1 uM, time 54 h): 44.609 and 41.7573 and 40.696 | U2OS cell growth (1 uM, time 56 h): 46.7786 and 49.5622 and 42.8728 | U2OS cell growth (1 uM, time 58 h): 46.5611 and 53.9752 and 42.1432 | U2OS cell growth (1 uM, time 60 h): 60.4507 and 54.7817 and 48.5604 | U2OS cell growth (1 uM, time 62 h): 59.1943 and 54.8864 and 50.1985 | U2OS cell growth (1 uM, time 64 h): 53.4434 and 54.5783 and 47.7028 | U2OS cell growth (1 uM, time 66 h): 52.0095 and 51.5108 and 45.6596 | U2OS cell growth (1 uM, time 68 h): 52.8953 and 56.7452 and 45.2781 | U2OS cell growth (1 uM, time 70 h): 53.803 and 53.7332 and 43.5461 | U2OS cell growth (1 uM, time 72 h): 51.4215 and 55.7661 and 47.397 | U2OS cell growth (3 uM, time 0 h): 34.2024 and 36.376 and 38.6668 | U2OS cell growth (3 uM, time 2 h): 38.3977 and 38.2102 and 40.6895 | U2OS cell growth (3 uM, time 4 h): 38.6509 and 39.2439 and 41.6964 | U2OS cell growth (3 uM, time 6 h): 37.5734 and 35.0944 and 35.8046 | U2OS cell growth (3 uM, time 8 h): 35.0629 and 34.0655 and 35.0431 | U2OS cell growth (3 uM, time 10 h): 36.5785 and 33.9226 and 38.3971 | U2OS cell growth (3 uM, time 12 h): 34.8854 and 31.3793 and 37.0691 | U2OS cell growth (3 uM, time 14 h): 34.2707 and 28.7445 and 31.9652 | U2OS cell growth (3 uM, time 16 h): 34.7729 and 29.5647 and 34.6836 | U2OS cell growth (3 uM, time 18 h): 33.132 and 27.5982 and 31.2012 | U2OS cell growth (3 uM, time 20 h): 30.6768 and 25.7267 and 30.4785 | U2OS cell growth (3 uM, time 22 h): 29.8144 and 24.3692 and 27.4449 | U2OS cell growth (3 uM, time 24 h): 27.9858 and 25.6417 and 27.3952 | U2OS cell growth (3 uM, time 26 h): 29.2786 and 25.7892 and 28.9016 | U2OS cell growth (3 uM, time 28 h): 27.6137 and 24.9874 and 26.9167 | U2OS cell growth (3 uM, time 30 h): 26.6111 and 25.3493 and 27.4407 | U2OS cell growth (3 uM, time 32 h): 26.9503 and 25.9594 and 27.7129 | U2OS cell growth (3 uM, time 48 h): 25.4708 and 25.8851 and 28.3176 | U2OS cell growth (3 uM, time 50 h): 25.1293 and 26.4095 and 27.0127 | U2OS cell growth (3 uM, time 52 h): 24.9031 and 27.2246 and 29.1456 | U2OS cell growth (3 uM, time 54 h): 24.6365 and 24.6482 and 28.431 | U2OS cell growth (3 uM, time 56 h): 25.9831 and 26.8626 and 28.8581 | U2OS cell growth (3 uM, time 58 h): 25.7496 and 28.2533 and 28.4753 | U2OS cell growth (3 uM, time 60 h): 26.8396 and 28.9234 and 32.5852 | U2OS cell growth (3 uM, time 62 h): 25.8993 and 27.8649 and 31.83 | U2OS cell growth (3 uM, time 64 h): 25.586 and 26.5192 and 30.5813 | U2OS cell growth (3 uM, time 66 h): 25.5573 and 26.177 and 29.1451 | U2OS cell growth (3 uM, time 68 h): 26.9679 and 26.9212 and 30.2676 | U2OS cell growth (3 uM, time 70 h): 24.8358 and 24.3369 and 27.5293 | U2OS cell growth (3 uM, time 72 h): 25.4806 and 25.8489 and 30.1657 | U2OS cell growth (5 uM, time 0 h): 33.2815 and 25.4553 and 36.825 | U2OS cell growth (5 uM, time 2 h): 37.3942 and 31.6173 and 43.0793 | U2OS cell growth (5 uM, time 4 h): 31.2077 and 34.5693 and 36.1758 | U2OS cell growth (5 uM, time 6 h): 32.1786 and 32.8409 and 39.7841 | U2OS cell growth (5 uM, time 8 h): 29.5284 and 30.9286 and 36.8404 | U2OS cell growth (5 uM, time 10 h): 30.6585 and 30.0434 and 38.1931 | U2OS cell growth (5 uM, time 12 h): 30.2785 and 28.309 and 36.0921 | U2OS cell growth (5 uM, time 14 h): 29.4853 and 26.7812 and 33.8046 | U2OS cell growth (5 uM, time 16 h): 35.7377 and 26.5203 and 37.112 | U2OS cell growth (5 uM, time 18 h): 31.7384 and 24.4245 and 33.7687 | U2OS cell growth (5 uM, time 20 h): 25.8039 and 22.0617 and 30.6892 | U2OS cell growth (5 uM, time 22 h): 30.2127 and 21.4229 and 33.5882 | U2OS cell growth (5 uM, time 24 h): 28.8051 and 21.8036 and 29.3497 | U2OS cell growth (5 uM, time 26 h): 26.8601 and 20.9796 and 30.9925 | U2OS cell growth (5 uM, time 28 h): 32.6092 and 19.9632 and 33.1688 | U2OS cell growth (5 uM, time 30 h): 31.5686 and 20.1756 and 32.9355 | U2OS cell growth (5 uM, time 32 h): 33.1875 and 20.0173 and 35.1531 | U2OS cell growth (5 uM, time 48 h): 33.8432 and 24.5537 and 39.9609 | U2OS cell growth (5 uM, time 50 h): 32.2623 and 25.9153 and 34.4569 | U2OS cell growth (5 uM, time 52 h): 38.407 and 23.8043 and 39.8857 | U2OS cell growth (5 uM, time 54 h): 32.7545 and 23.1111 and 34.063 | U2OS cell growth (5 uM, time 56 h): 38.9851 and 24.1727 and 36.6069 | U2OS cell growth (5 uM, time 58 h): 40.8215 and 24.3142 and 36.269 | U2OS cell growth (5 uM, time 60 h): 45.4242 and 27.4359 and 48.0619 | U2OS cell growth (5 uM, time 62 h): 41.7021 and 26.6512 and 34.1758 | U2OS cell growth (5 uM, time 64 h): 35.5781 and 28.1251 and 35.0707 | U2OS cell growth (5 uM, time 66 h): 43.0487 and 25.4063 and 42.4088 | U2OS cell growth (5 uM, time 68 h): 36.8482 and 25.0895 and 34.995 | U2OS cell growth (5 uM, time 70 h): 46.2674 and 29.0868 and 48.7641 | U2OS cell growth (5 uM, time 72 h): 38.4782 and 25.8801 and 35.932 | U2OS cell growth (10 uM, time 0 h): 36.6888 and 25.9488 and 39.412 | U2OS cell growth (10 uM, time 2 h): 32.7801 and 22.005 and 32.135 | U2OS cell growth (10 uM, time 4 h): 26.345 and 17.8523 and 31.3415 | U2OS cell growth (10 uM, time 6 h): 24.7576 and 14.7737 and 25.8723 | U2OS cell growth (10 uM, time 8 h): 24.5321 and 14.5062 and 23.0218 | U2OS cell growth (10 uM, time 10 h): 29.1339 and 16.0642 and 25.8713 | U2OS cell growth (10 uM, time 12 h): 27.4568 and 15.8316 and 28.3309 | U2OS cell growth (10 uM, time 16 h): 27.3301 and 15.0503 and 28.5195 | U2OS cell growth (10 uM, time 20 h): 31.676 and 15.9606 and 29.2402
